Assay [1] addresses FLAG-tagged p33 replication protein derived from cucumber necrosis virus, expressed in N. benthamiana (cucumber necrosis virus) (UniProt P15187). As to the kind of experiment: co-IP; FLAG-affinity purification of FLAG-tagged p33 from detergent-solubilized membrane fraction of N. benthamiana leaves co-expressing His6-AtVps4, p33 and p19; anti-His Western blot.
Assay [2] has as its target T1, FLAG-tagged tombusvirus p33 replication protein expressed in yeast (not stated (tombusvirus; TBSV implied)) (UniProt P15962).
T1 sequence: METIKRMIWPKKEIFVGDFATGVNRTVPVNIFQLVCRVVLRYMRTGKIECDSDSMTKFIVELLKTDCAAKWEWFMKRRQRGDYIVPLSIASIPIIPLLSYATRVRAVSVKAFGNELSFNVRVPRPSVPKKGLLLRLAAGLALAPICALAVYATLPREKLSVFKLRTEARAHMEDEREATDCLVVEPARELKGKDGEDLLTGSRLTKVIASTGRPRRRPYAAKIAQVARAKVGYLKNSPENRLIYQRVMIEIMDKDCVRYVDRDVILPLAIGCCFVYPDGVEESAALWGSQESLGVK
As to the kind of experiment: co-IP; FLAG-affinity purification of the replicase via FLAG-p33 from solubilized (NP-40) membrane fraction of yeast also expressing His6-p92 and DI-72 repRNA, after 1% formaldehyde cross-linking; anti-His Western blot; in Fig. 2B cycloheximide (100 µg/ml) for 0, 60 and 150 min.

Sequences of proteins named here, by UniProt entry; tags and fusion partners are left off. Residues count along the entry.
UniProt P15187, residues 1-296: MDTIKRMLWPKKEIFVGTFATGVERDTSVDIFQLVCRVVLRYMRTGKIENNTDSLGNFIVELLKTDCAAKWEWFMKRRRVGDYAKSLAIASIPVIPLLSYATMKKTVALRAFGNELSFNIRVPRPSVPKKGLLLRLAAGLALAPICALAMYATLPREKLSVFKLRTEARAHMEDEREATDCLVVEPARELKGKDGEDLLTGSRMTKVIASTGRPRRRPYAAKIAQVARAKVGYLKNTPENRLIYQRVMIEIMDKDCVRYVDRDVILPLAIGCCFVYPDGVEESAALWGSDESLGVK
UniProt Q9ZNT0: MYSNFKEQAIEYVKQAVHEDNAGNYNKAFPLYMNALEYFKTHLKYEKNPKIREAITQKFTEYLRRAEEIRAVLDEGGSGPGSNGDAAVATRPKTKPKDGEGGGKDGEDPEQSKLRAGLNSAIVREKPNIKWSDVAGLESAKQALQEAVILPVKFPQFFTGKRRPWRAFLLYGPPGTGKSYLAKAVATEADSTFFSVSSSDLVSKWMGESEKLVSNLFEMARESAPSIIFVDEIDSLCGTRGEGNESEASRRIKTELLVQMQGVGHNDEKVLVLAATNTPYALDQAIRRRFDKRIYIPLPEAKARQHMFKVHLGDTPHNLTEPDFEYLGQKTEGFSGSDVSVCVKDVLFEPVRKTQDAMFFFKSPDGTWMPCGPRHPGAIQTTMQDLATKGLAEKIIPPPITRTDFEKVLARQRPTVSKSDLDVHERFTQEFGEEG
UniProt P10591: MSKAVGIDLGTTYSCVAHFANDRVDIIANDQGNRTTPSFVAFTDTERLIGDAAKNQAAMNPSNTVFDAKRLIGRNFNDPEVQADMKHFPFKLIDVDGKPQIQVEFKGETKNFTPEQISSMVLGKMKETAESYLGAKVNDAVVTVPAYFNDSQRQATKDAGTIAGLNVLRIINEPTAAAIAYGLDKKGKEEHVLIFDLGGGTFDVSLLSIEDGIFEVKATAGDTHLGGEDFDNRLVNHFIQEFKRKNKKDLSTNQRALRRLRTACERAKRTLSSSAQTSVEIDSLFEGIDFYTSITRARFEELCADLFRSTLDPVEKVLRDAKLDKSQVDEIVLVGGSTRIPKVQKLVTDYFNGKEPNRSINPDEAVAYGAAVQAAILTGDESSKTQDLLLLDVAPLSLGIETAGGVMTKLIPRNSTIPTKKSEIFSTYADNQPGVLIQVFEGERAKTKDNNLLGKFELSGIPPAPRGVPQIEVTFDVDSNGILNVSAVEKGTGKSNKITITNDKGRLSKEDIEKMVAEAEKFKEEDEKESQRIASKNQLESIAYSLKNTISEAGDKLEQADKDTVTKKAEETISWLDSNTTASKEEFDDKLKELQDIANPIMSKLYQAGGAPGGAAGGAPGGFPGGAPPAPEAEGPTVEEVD

Assay [3] deals with T2, tombusvirus p33 replication protein, split-ubiquitin bait (not stated (tombusvirus; TBSV implied)) (UniProt P15962).
T2 sequence: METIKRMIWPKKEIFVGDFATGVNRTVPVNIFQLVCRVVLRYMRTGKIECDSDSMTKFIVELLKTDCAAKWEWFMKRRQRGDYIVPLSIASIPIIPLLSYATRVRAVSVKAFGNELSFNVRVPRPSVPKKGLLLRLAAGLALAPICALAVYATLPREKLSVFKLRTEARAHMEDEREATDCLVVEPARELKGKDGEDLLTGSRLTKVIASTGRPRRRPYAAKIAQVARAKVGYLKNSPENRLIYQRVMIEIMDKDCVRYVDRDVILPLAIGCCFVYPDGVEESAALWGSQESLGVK
In words: two-hybrid; split-ubiquitin membrane yeast two-hybrid (MYTH, Dualsystems) in yeast NMY51; p33 bait, NubG preys; serial dilutions spotted on TLHA- plates.

Assay [4] concerns the target T1, FLAG-tagged tombusvirus p33 replication protein expressed in yeast (not stated (tombusvirus; TBSV implied)). In words: co-IP; FLAG-affinity purification of FLAG-p33 (FLAG M2-agarose) from solubilized membrane fraction of yeast BY4741 after 1% formaldehyde cross-linking; His6-tagged host proteins detected with anti-His antibody.
Assay [5] concerns the target T2, tombusvirus p33 replication protein, split-ubiquitin bait (not stated (tombusvirus; TBSV implied)). As to the kind of experiment: two-hybrid; split-ubiquitin membrane yeast two-hybrid (MYTH, Dualsystems) in yeast NMY51; p33 bait, NubG preys; serial dilutions spotted on TLHA- plates. The source holds these as a separate data set.

Read-outs that look alike come from different tables or passages of the source. Results are given in words; binding and its absence hold for the method and conditions named. For some assays here: In cells and extracts the contact can be indirect. Some entries that bind do so weakly or less than the wild type. For some assays here: Sequences can lack the tags named with a protein.

On to “His6-tagged Arabidopsis thaliana Vps4 expressed in N. benthamiana (from UniProt Q9ZNT0 1-435)”, for which the binding result in assay [1] is “binds”. For the molecule “His6-tagged Ssa1p Hsp70 expressed in yeast (from UniProt P10591 1-642)”, the binding result in assay [2] is reported as “binds”. Take “Vps4p N-terminal MIT domain, split-ubiquitin prey (construct 1-100) (from UniProt P52917 1-100) (domain or fragment)”: in assay [3], the binding entry is given as “binds”.

B1: His6-tagged Pex19p peroxisomal shuttle protein expressed in yeast (protein, UniProt Q07418 1-342)
chain: MNENEYDNFDDLDDLLDEDPTKLDEAEPDDVQAKGSVYNDSENKEKNAESKDSDGVQVANESEEDPELKEMMVDLQNEFANLMKNNGNENNVKTEDFNKLISALEEAAKVPHQQMEQGCSSLKSNSTDKGTVNGSNPGFKNIVSNTLDRLKENGNKVDTSLAEETKESQRSGQNNNIDDILSQLLDQMVASGGKESAENQFDLKDGEMDDAITKILDQMTSKEVLYEPMKEMRSEFGVWFQENGENEEHKEKIGTYKRQFNIVDEIVNIYELKDYDELKHKDRVTELLDELEQLGDSPIRSANSPLKHGNEEEELMKMLEIDGNDPNLGNLDKELTDGCKQQ
For B1, the binding result in assay [2] is “binds”.

B2: His6-tagged Vps2p expressed in yeast (protein, UniProt P36108 1-232)
chain: MSLFEWVFGKNVTPQERLKKNQRALERTQRELEREKRKLELQDKKLVSEIKKSAKNGQVAAAKVQAKDLVRTRNYIQKFDNMKAQLQAISLRIQAVRSSDQMTRSMSEATGLLAGMNRTMNLPQLQRISMEFEKQSDLMGQRQEFMDEAIDNVMGDEVDEDEEADEIVNKVLDEIGVDLNSQLQSTPQNLVSNAPIAETAMGIPEPIGAGSEFHGNPDDDLQARLNTLKKQT
In the case of B2, the binding result in assay [4] is recorded as “binds”.

B3: Vps2p ESCRT-III protein, split-ubiquitin prey (protein, UniProt P36108 1-232)
chain: MSLFEWVFGKNVTPQERLKKNQRALERTQRELEREKRKLELQDKKLVSEIKKSAKNGQVAAAKVQAKDLVRTRNYIQKFDNMKAQLQAISLRIQAVRSSDQMTRSMSEATGLLAGMNRTMNLPQLQRISMEFEKQSDLMGQRQEFMDEAIDNVMGDEVDEDEEADEIVNKVLDEIGVDLNSQLQSTPQNLVSNAPIAETAMGIPEPIGAGSEFHGNPDDDLQARLNTLKKQT
Take B3: the binding result in assay [5] was “binds”.

B4: His6-tagged Vps20p expressed in yeast (protein, UniProt Q04272 1-221)
chain: MGQKSSKVHITKTDRAILEVKRSKDEIHKFTRRTDNLILVEKSQLKDLIRKNPENYKSNMKVRFLLKRIHYQEHLLQQASDQLINLENMVSTLEFKMVEKQFINGLKNGNEILKKLNKEFSNVDELMDDVQDQIAYQNEINETLSRSLVGTSNYEDDLDKELDALESELNPEKMNNAKVANMPSTEGLPSLPQGEQTEQKEREEFATEERSDTKEPLALLS
Take B4: in assay [4], the binding entry was “binds”.

B5: Vps20p ESCRT-III protein, split-ubiquitin prey (protein, UniProt Q04272 1-221)
chain: MGQKSSKVHITKTDRAILEVKRSKDEIHKFTRRTDNLILVEKSQLKDLIRKNPENYKSNMKVRFLLKRIHYQEHLLQQASDQLINLENMVSTLEFKMVEKQFINGLKNGNEILKKLNKEFSNVDELMDDVQDQIAYQNEINETLSRSLVGTSNYEDDLDKELDALESELNPEKMNNAKVANMPSTEGLPSLPQGEQTEQKEREEFATEERSDTKEPLALLS
On to B5, for which, in assay [5], the binding entry is reported as “binds”.

B6: His6-tagged N-terminally truncated Vps4p (101-437) expressed in yeast (domain or fragment, UniProt P52917 101-437)
chain: QEEGEDNGGEDNKKLRGALSSAILSEKPNVKWEDVAGLEGAKEALKEAVILPVKFPHLFKGNRKPTSGILLYGPPGTGKSYLAKAVATEANSTFFSVSSSDLVSKWMGESEKLVKQLFAMARENKPSIIFIDEVDALTGTRGEGESEASRRIKTELLVQMNGVGNDSQGVLVLGATNIPWQLDSAIRRRFERRIYIPLPDLAARTTMFEINVGDTPCVLTKEDYRTLGAMTEGYSGSDIAVVVKDALMQPIRKIQSATHFKDVSTEDDETRKLTPCSPGDDGAIEMSWTDIEADELKEPDLTIKDFLKAIKSTRPTVNEDDLLKQEQFTRDFGQEGN
Turning to B6, in assay [2], the binding result is listed as “binds”.

B7: full-length yeast Vps4p, split-ubiquitin prey (construct 1-437) (protein, UniProt P52917 1-437)
chain: MSTGDFLTKGIELVQKAIDLDTATQYEEAYTAYYNGLDYLMLALKYEKNPKSKDLIRAKFTEYLNRAEQLKKHLESEEANAAKKSPSAGSGSNGGNKKISQEEGEDNGGEDNKKLRGALSSAILSEKPNVKWEDVAGLEGAKEALKEAVILPVKFPHLFKGNRKPTSGILLYGPPGTGKSYLAKAVATEANSTFFSVSSSDLVSKWMGESEKLVKQLFAMARENKPSIIFIDEVDALTGTRGEGESEASRRIKTELLVQMNGVGNDSQGVLVLGATNIPWQLDSAIRRRFERRIYIPLPDLAARTTMFEINVGDTPCVLTKEDYRTLGAMTEGYSGSDIAVVVKDALMQPIRKIQSATHFKDVSTEDDETRKLTPCSPGDDGAIEMSWTDIEADELKEPDLTIKDFLKAIKSTRPTVNEDDLLKQEQFTRDFGQEGN
With B7, the binding entry in assay [5] is “binds”.

B8: His6-tagged Vps4p expressed in yeast (protein, UniProt P52917 1-437)
chain: MSTGDFLTKGIELVQKAIDLDTATQYEEAYTAYYNGLDYLMLALKYEKNPKSKDLIRAKFTEYLNRAEQLKKHLESEEANAAKKSPSAGSGSNGGNKKISQEEGEDNGGEDNKKLRGALSSAILSEKPNVKWEDVAGLEGAKEALKEAVILPVKFPHLFKGNRKPTSGILLYGPPGTGKSYLAKAVATEANSTFFSVSSSDLVSKWMGESEKLVKQLFAMARENKPSIIFIDEVDALTGTRGEGESEASRRIKTELLVQMNGVGNDSQGVLVLGATNIPWQLDSAIRRRFERRIYIPLPDLAARTTMFEINVGDTPCVLTKEDYRTLGAMTEGYSGSDIAVVVKDALMQPIRKIQSATHFKDVSTEDDETRKLTPCSPGDDGAIEMSWTDIEADELKEPDLTIKDFLKAIKSTRPTVNEDDLLKQEQFTRDFGQEGN
On to B8, for which the binding result in assay [2] and in assay [4] was “binds” throughout.

B9: His6-tagged Vps24p expressed in yeast (protein, UniProt P36095 1-224)
chain: MDYIKKAIWGPDPKEQQRRIRSVLRKNGRNIEKSLRELTVLQNKTQQLIKKSAKKNDVRTVRLYAKELYQINKQYDRMYTSRAQLDSVRMKIDEAIRMNTLSNQMADSAGLMREVNSLVRLPQLRNTMIELEKELMKSGIISEMVDDTMESVGDVGEEMDEAVDEEVNKIVEQYTNEKFKNVDQVPTVELAANEEEQEIPDEKVDEEADRMVNEMRERLRALQN
Take B9: the binding entry in assay [4] is on record as “binds”.

B10: Vps24p ESCRT-III protein, split-ubiquitin prey (protein, UniProt P36095 1-224)
chain: MDYIKKAIWGPDPKEQQRRIRSVLRKNGRNIEKSLRELTVLQNKTQQLIKKSAKKNDVRTVRLYAKELYQINKQYDRMYTSRAQLDSVRMKIDEAIRMNTLSNQMADSAGLMREVNSLVRLPQLRNTMIELEKELMKSGIISEMVDDTMESVGDVGEEMDEAVDEEVNKIVEQYTNEKFKNVDQVPTVELAANEEEQEIPDEKVDEEADRMVNEMRERLRALQN
On to B10, for which, in assay [5], the binding result is recorded as “binds”.

For the origin of these results see publication PMC3999190.
